Experimental findings from publication PMC10755004, “Pyrimidine salvage in Toxoplasma gondii as a target for new treatment” (Frontiers in Cellular and Infection Microbiology, 2023) are described below.

The subject of this data set is T. gondii tachyzoites. In words: Uptake of tritiated pyrimidines by T. gondii tachyzoites over time. The format is cell-based, Toxoplasma gondii. The note with it: for Saturable: uptake of radiolabel in presence of excess unlabeled permeant.

`Nc1ccn([C@@H]2O[C@H](CO)[C@@H](O)[C@H]2O)c(=O)n1` [Cytidine]: the Saturable entry is recorded as “Yes”. Further, the “uptake rate relative to thymidine” value (0.2 µM [3H]-cytidine vs 0.25 µM [3H]-thymidine) was greater than 4 fold.
For the compound `Cc1cn([C@H]2C[C@H](O)[C@@H](CO)O2)c(=O)[nH]c1=O` [Thymidine], the Saturable entry was “No”.
As for `O=c1cc[nH]c(=O)[nH]1` [Uracil], the Saturable result is “Yes”. Also, for the setting “0.1 µM [3H]-uracil vs 0.1 µM [3H]-uridine”, the “uptake rate relative to uridine” value is reported as ~ 2.5 fold. The Saturable entry (listed as [^3H]-uracil) is “fully saturable”.
